Positions count from the first letter of the chain named. Protein sequences can lack the tags named with them.
How the values were obtained:
Assay in all cases: activity assay
[1] = target: T1, His-tagged F-linker Phi29 DNA polymerase D169A (exo-) (Bacteriophage phi29) (UniProt P03680); conditions: primer extension; 20 uM dATP, Mg/Mn; purified recombinant protein; protein details: His tag and F-linker, linked to quantum dot; label: fluorescein-dT at X; folded or branched DNA
T1 sequence: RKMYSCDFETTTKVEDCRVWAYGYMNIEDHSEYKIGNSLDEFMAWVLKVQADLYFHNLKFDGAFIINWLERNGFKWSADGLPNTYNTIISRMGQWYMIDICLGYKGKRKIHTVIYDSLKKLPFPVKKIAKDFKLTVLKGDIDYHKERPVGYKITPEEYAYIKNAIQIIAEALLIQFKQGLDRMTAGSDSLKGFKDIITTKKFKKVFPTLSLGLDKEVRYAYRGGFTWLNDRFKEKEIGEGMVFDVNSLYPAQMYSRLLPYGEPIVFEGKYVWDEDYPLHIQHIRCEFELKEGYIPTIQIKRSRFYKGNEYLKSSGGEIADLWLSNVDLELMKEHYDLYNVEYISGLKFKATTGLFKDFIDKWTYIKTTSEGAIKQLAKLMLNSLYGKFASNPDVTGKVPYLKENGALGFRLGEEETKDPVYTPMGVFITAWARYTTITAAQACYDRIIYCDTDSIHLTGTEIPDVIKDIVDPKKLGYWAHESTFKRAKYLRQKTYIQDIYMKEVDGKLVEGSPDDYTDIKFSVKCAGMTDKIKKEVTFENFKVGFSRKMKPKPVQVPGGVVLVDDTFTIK

[2] = target: T2, PKA-tagged Phi29 DNA polymerase (Bacteriophage phi29) (UniProt P03680); conditions: primer extension; purified recombinant protein; label: fluorescein-dT at X; folded or branched DNA
T2 sequence: T1 sequence with A164D

[3] = target: T3, Phi29 DNA polymerase (HRP-treated quantum dot conjugate) (Bacteriophage phi29) (UniProt P03680); conditions: primer extension; 10 mM MgCl2, 20 uM dATP; purified recombinant protein; protein details: His tag, HRP-treated quantum dot conjugate; label: fluorescein-dT at …; folded or branched DNA
T3 sequence (looked up, limits assumed): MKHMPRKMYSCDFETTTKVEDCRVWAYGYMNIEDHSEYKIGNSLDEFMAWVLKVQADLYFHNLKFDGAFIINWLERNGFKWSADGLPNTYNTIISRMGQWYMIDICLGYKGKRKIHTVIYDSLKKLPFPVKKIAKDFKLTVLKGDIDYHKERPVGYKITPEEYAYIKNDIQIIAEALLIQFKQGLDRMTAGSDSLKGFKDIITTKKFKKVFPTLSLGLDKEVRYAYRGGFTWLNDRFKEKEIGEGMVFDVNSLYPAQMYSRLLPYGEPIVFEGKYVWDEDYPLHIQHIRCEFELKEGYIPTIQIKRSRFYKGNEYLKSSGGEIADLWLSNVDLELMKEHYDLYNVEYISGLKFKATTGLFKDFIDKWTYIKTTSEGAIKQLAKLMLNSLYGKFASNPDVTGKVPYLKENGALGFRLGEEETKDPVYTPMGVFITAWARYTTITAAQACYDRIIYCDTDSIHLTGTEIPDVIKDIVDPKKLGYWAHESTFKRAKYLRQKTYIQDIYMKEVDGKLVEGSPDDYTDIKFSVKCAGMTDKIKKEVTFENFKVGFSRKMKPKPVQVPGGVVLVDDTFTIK

Measured: activity on this sequence

TTTTTTTGCAGGTGACAGGTTTTTCCTGTCACCTGC [oligo 221]
active: all assays above

Reference: patent US20110003343, “CONJUGATES OF BIOMOLECULES TO NANOPARTICLES” (LIFE TECHNOLOGIES CORPORATION, published 2011)
